From doi:10.1101/2019.12.18.867333
No constants are given. Whether binding was seen depends on the method and setting. In cells and extracts the contact can be indirect. Some results given as binding are weak or reduced against the parent protein; the word gives no strength. Where a sequence is shown, tags or fusion partners need not be part of it.

Target: FLAG-RAB7, P51149
Test: co-IP
Conditions: remark: other sources report otherwise

B1: VPS41^WT-APEX2-V5, P49754-1 1-854 (protein)
chain: MAEAEEQETGSLEESTDESEEEESEEEPKLKYERLSNGVTEILQKDAASCMTVHDKFLALGTHYGKVYLLDVQGNITQKFDVSPVKINQISLDESGEHMGVCSEDGKVQVFGLYSGEEFHETFDCPIKIIAVHPHFVRSSCKQFVTGGKKLLLFERSWMNRWKSAVLHEGEGNIRSVKWRGHLIAWANNMGVKIFDIISKQRITNVPRDDISLRPDMYPCSLCWKDNVTLIIGWGTSVKVCSVKERHASEMRDLPSRYVEIVSQFETEFYISGLAPLCDQLVVLSYVKEISEKTEREYCARPRLDIIQPLSETCEEISSDALTVRGFQENECRDYHLEYSEGESLFYIVSPRDVVVAKERDQDDHIDWLLEKKKYEEALMAAEISQKNIKRHKILDIGLAYINHLVERGDYDIAARKCQKILGKNAALWEYEVYKFKEIGQLKAISPYLPRGDPVLKPLIYEMILHEFLESDYEGFATLIREWPGDLYNNSVIVQAVRDHLKKDSQNKTLLKTLAELYTYDKNYGNALEIYLTLRHKDVFQLIHKHNLFSSIKDKIVLLMDFDSEKAVDMLLDNEDKISIKKVVEELEDRPELQHVYLHKLFKRDHHKGQRYHEKQISLYAEYDRPNLLPFLRDSTHCPLEKALEICQQRNFVEETVYLLSRMGNSRSALKMIMEELHDVDKAIEFAKEQDDGELWEDLILYSIDKPPFITGLLNNIGTHVDPILLIHRIKEGMEIPNLRDSLVKILQDYNLQILLREGCKKILVADSLSLLKKMHRTQMKGVLVDEENICESCLSPILPSDAAKPFSVVVFHCRHMFHKECLPMPSMNSAAQFCNICSAKNRGPGSAILEMKK
  binding: binds
